Test [1] concerns the target T1, ANO1 (Ca2+-activated Cl- channel encoded by Ano1) (mouse (endogenous in small intestine muscle and ICC)) (UniProt Q8BHY3).
T1 sequence: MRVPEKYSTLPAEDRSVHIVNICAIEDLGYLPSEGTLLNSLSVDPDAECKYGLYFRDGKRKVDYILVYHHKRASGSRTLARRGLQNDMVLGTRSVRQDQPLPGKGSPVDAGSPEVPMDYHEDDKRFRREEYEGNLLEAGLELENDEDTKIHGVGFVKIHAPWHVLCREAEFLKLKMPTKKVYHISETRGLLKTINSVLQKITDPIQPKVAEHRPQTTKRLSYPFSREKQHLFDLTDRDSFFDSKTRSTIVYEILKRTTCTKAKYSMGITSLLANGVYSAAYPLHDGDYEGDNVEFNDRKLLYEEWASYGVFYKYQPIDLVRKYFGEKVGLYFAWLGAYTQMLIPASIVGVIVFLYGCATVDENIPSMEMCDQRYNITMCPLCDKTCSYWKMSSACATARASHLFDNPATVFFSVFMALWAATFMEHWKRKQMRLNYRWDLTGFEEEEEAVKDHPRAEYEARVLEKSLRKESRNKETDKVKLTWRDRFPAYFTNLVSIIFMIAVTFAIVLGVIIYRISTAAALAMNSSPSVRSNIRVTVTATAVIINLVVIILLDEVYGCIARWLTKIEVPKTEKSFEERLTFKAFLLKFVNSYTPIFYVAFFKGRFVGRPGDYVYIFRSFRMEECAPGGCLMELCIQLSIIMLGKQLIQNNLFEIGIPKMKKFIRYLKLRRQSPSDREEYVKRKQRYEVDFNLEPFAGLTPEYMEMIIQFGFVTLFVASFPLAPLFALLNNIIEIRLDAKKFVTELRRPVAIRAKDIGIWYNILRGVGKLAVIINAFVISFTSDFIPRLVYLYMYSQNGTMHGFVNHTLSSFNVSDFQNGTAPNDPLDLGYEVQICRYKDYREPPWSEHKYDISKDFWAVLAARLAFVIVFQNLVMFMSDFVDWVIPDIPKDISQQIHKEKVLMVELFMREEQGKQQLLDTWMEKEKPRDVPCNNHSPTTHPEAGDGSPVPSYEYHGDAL
As to the kind of experiment: co-IP; membrane fraction (500 ug) of mouse small intestine smooth muscle in IP/lysis buffer (50 mM Tris-HCl pH 8, 0.5% NP40); anti-ANO1 or anti-NCX3 antibody crosslinked to Protein-A/G magnetic beads, overnight at 4°C; elution with low pH buffer; detection by ProteinSimple Wes; non-immune rabbit IgG as control.

By UniProt entry, the sequences of proteins in these tests, tags left out. Where a name states a change or a piece, a line headed by the entry shows the natural chain unless it says otherwise. Residues count along the entry.
UniProt S4R2P9, residues 31-928: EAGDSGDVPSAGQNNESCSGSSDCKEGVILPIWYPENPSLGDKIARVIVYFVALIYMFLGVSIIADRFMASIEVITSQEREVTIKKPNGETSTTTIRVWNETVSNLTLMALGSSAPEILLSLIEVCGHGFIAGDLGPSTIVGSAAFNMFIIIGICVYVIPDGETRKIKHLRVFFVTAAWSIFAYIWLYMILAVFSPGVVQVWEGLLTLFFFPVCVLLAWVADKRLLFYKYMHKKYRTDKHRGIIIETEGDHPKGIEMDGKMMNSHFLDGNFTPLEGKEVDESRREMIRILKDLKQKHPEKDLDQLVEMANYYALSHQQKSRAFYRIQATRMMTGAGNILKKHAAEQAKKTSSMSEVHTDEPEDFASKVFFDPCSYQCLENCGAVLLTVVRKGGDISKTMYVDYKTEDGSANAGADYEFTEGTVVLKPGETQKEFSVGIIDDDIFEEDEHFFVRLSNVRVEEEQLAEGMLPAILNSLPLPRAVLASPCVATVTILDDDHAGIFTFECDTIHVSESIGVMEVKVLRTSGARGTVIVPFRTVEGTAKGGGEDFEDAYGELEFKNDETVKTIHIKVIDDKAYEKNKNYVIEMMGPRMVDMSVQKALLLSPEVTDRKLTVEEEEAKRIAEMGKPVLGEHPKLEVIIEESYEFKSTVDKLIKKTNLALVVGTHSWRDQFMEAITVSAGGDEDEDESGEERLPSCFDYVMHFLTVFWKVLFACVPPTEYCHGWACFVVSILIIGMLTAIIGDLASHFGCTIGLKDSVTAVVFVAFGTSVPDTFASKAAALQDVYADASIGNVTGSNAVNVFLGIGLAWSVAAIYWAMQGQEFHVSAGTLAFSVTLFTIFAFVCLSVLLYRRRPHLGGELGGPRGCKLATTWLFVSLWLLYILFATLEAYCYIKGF

For test [2], the target named is NCX3 (Na+/Ca2+ exchanger 3, encoded by Slc8a3) (mouse (endogenous in small intestine muscle and ICC)) (UniProt S4R2P9). The test is described as above.

These are yes or no findings as the source states them, for the method shown. In cells and extracts the contact can be indirect. Some entries that bind do so weakly or less than the wild type.

As for “NCX3 (Na+/Ca2+ exchanger 3, encoded by Slc8a3) (from UniProt S4R2P9-1 31-928)”, the binding result in test [1] is listed as “binds”.

B1: ANO1 (Ca2+-activated Cl- channel encoded by Ano1) (protein, UniProt Q8BHY3 1-960)
chain: MRVPEKYSTLPAEDRSVHIVNICAIEDLGYLPSEGTLLNSLSVDPDAECKYGLYFRDGKRKVDYILVYHHKRASGSRTLARRGLQNDMVLGTRSVRQDQPLPGKGSPVDAGSPEVPMDYHEDDKRFRREEYEGNLLEAGLELENDEDTKIHGVGFVKIHAPWHVLCREAEFLKLKMPTKKVYHISETRGLLKTINSVLQKITDPIQPKVAEHRPQTTKRLSYPFSREKQHLFDLTDRDSFFDSKTRSTIVYEILKRTTCTKAKYSMGITSLLANGVYSAAYPLHDGDYEGDNVEFNDRKLLYEEWASYGVFYKYQPIDLVRKYFGEKVGLYFAWLGAYTQMLIPASIVGVIVFLYGCATVDENIPSMEMCDQRYNITMCPLCDKTCSYWKMSSACATARASHLFDNPATVFFSVFMALWAATFMEHWKRKQMRLNYRWDLTGFEEEEEAVKDHPRAEYEARVLEKSLRKESRNKETDKVKLTWRDRFPAYFTNLVSIIFMIAVTFAIVLGVIIYRISTAAALAMNSSPSVRSNIRVTVTATAVIINLVVIILLDEVYGCIARWLTKIEVPKTEKSFEERLTFKAFLLKFVNSYTPIFYVAFFKGRFVGRPGDYVYIFRSFRMEECAPGGCLMELCIQLSIIMLGKQLIQNNLFEIGIPKMKKFIRYLKLRRQSPSDREEYVKRKQRYEVDFNLEPFAGLTPEYMEMIIQFGFVTLFVASFPLAPLFALLNNIIEIRLDAKKFVTELRRPVAIRAKDIGIWYNILRGVGKLAVIINAFVISFTSDFIPRLVYLYMYSQNGTMHGFVNHTLSSFNVSDFQNGTAPNDPLDLGYEVQICRYKDYREPPWSEHKYDISKDFWAVLAARLAFVIVFQNLVMFMSDFVDWVIPDIPKDISQQIHKEKVLMVELFMREEQGKQQLLDTWMEKEKPRDVPCNNHSPTTHPEAGDGSPVPSYEYHGDAL
Turning to B1, in test [2], the binding result was “binds”.
